Results on three compounds are retold here after publication PMC9544108 (Chemmedchem, 2022).

For some of these results: HELM strings list residues between dots; [ac] is acetyl, [am] amide, other brackets name non-standard units. Numbered stars: 1 amine (or outer) side, 2 acyl side, 3 side chain; on linkers, the order of the positions; unused ones are H or OH. Square brackets hold non-standard residues; d marks the D form. Peptide text beside a SMILES is read from it. γGlu = O=C(O)[C@H](CCC(=O)[*:2])N[*:1]; Cya = N[C@@H](CS(=O)(=O)O)C(=O)O

Data set [1] is described as follows: general procedure: Fmoc solid-phase peptide synthesis; 2-chlorotrityl chloride resin; HATU / Hünig's base. Conditions: cyclisation step, HCl (ion exchange from TFA).
A short description of data set [2]: UV-monitored reversed back-titration with Pb(II) of peptide mixed with ZnCl2 or CaCl2 (metal selectivity). Format: physicochemical. Conditions: peptide 100 μM, Pb(II) 0-1 equiv.; for Pb(II) complexation in the presence of CaCl2, in words: CaCl2 10 mM (100 fold excess).
The nature of data set [3]: UV-monitored back-titration of the Pb(II)-peptide complex with ZnCl2 or CaCl2 (complex stability). Format: physicochemical. Conditions: Pb(II)-peptide 100 μM; for absorption of the LMCT band relative to holo, back-titration with ZnCl2: 20 mM Tris pH 6.5, ZnCl2 0-1 mM (0-10 equiv.), 8: after the second equivalent, 9: highest concentration.

“PEPTIDE1{A.[bAsp].C.G.A.[bAsp].C.G}$PEPTIDE1,PEPTIDE1,1:R1-8:R2$$$V2.0”: the difficulty met entry in data set [1] was “LCMS analysis did not reveal full conversion or indicate further reaction progression”.

`NC(=O)C[C@@H]1NC(=O)CNC(=O)[C@H](CS)NC(=O)CC[C@@H](C(=O)O)NC(=O)[C@H](CC(N)=O)NC(=O)CNC(=O)[C@H](CS)NC(=O)CC[C@@H](C(=O)O)NC1=O` [peptide 8] (cyclo(CGN[γGlu]CGN[γGlu])): in data set [2], the “Pb(II) complexation in the presence of CaCl2, in words” value is “same behavior”. Besides, the “Pb(II) complexation in the presence of ZnCl2, in words” value in data set [2] (ZnCl2 1 mM) is “no typical LMCT”. The “absorption of the LMCT band relative to holo, back-titration with ZnCl2” value in data set [3] (317 nm) is given as “around 30%”. Further, in data set [3] (1 equiv. ZnCl2), the “LMCT band on adding equimolar ZnCl2, in words” value is given as “did not significantly affect the LMCT band”. Moreover, the “LMCT band on back-titration with CaCl2, in words” value in data set [3] (CaCl2 0-10 mM) is “did not lower its intensity”.

For `O=C1CC[C@@H](C(=O)O)NC(=O)[C@H](CS(=O)(=O)O)NC(=O)CNC(=O)[C@H](CS)NC(=O)CC[C@@H](C(=O)O)NC(=O)[C@H](CS(=O)(=O)O)NC(=O)CNC(=O)[C@H](CS)N1` [peptide 9] (cyclo(CG[Cya][γGlu]CG[Cya][γGlu])), the “intensity relative to holo absorption, Pb(II) titrated in the presence of ZnCl2” value in data set [2] (10 equivalents ZnCl2 (1 mM), 20 mM Tris pH 6.5) worked out at 42%. Moreover, the “Pb(II) complexation in the presence of CaCl2, in words” value in data set [2] is listed as “complete complexation with Pb(II) ions”. The “absorption of the LMCT band relative to holo, back-titration with CaCl2” value in data set [3] (20 mM Tris pH 6.5, CaCl2 0-10 mM (0-100 equiv.), highest concentration, 317 nm) was 29%. Besides, in data set [3] (317 nm), the “absorption of the LMCT band relative to holo, back-titration with ZnCl2” value stood at 48%.
